# Structures can show the parent of a compound that is named as a salt. The list shows a part of the results. The calls rarely recur for the same compound in another form.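 In K562 cells expressing nanoluciferase-fused kinases, luminescence was recorded at 4 h intervals between 2 and 18 h, normalized as percent of control with DMSO at 100% and a positive control at 0%. A significant (2 sigma) signal drop marks a time point as decreased. The authors' rule for a hit is not shown and takes in more than the number of time points.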
# Sequences of proteins named here, by UniProt entry; tags and fusion partners are left off. A change or cut given only in a name is not applied to a line headed by its entry.
# UniProt O75460: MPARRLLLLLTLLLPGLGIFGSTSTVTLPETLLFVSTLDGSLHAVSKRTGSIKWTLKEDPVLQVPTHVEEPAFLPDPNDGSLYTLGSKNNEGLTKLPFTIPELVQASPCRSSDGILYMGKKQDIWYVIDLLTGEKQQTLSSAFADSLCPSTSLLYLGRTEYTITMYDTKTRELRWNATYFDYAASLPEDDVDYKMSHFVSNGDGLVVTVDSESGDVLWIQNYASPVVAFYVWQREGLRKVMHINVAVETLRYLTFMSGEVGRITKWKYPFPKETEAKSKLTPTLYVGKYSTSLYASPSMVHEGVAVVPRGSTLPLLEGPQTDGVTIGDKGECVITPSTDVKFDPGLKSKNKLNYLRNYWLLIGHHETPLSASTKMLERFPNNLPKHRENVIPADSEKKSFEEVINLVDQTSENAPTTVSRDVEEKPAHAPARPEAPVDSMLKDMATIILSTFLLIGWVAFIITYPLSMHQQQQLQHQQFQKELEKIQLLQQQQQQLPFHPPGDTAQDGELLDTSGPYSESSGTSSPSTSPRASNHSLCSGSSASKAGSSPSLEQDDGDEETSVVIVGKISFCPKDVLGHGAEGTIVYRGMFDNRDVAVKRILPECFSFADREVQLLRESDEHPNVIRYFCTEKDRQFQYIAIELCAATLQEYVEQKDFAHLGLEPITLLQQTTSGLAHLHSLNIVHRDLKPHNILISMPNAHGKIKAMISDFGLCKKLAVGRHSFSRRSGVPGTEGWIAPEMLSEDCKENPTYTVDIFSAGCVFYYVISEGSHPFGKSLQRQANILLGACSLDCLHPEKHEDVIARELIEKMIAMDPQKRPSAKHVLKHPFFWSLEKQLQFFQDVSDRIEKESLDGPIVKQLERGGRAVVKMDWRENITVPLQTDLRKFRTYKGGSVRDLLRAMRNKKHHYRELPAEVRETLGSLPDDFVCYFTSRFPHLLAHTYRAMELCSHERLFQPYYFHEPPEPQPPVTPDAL
# UniProt P21802, whole entry, looked up: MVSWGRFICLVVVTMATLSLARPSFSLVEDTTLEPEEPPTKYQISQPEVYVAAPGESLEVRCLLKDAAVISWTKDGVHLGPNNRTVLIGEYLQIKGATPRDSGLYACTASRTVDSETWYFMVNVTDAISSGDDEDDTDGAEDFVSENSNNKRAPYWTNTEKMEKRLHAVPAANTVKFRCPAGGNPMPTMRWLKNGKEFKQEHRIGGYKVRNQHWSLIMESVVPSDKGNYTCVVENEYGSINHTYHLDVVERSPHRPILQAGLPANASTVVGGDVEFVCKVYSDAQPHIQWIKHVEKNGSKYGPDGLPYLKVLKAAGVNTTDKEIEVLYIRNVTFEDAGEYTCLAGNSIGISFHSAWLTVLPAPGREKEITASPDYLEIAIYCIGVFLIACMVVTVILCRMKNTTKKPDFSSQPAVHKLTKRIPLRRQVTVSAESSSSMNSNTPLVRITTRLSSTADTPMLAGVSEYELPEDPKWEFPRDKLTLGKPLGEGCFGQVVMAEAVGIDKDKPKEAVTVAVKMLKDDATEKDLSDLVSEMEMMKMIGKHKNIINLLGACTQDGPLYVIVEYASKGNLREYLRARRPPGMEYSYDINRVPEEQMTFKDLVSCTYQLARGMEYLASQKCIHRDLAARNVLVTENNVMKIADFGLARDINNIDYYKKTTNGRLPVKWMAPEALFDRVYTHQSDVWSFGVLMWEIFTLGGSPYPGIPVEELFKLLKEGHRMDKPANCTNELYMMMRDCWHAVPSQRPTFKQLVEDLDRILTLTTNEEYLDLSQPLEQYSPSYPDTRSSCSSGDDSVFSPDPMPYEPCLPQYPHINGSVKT
# UniProt P22607, whole entry, looked up: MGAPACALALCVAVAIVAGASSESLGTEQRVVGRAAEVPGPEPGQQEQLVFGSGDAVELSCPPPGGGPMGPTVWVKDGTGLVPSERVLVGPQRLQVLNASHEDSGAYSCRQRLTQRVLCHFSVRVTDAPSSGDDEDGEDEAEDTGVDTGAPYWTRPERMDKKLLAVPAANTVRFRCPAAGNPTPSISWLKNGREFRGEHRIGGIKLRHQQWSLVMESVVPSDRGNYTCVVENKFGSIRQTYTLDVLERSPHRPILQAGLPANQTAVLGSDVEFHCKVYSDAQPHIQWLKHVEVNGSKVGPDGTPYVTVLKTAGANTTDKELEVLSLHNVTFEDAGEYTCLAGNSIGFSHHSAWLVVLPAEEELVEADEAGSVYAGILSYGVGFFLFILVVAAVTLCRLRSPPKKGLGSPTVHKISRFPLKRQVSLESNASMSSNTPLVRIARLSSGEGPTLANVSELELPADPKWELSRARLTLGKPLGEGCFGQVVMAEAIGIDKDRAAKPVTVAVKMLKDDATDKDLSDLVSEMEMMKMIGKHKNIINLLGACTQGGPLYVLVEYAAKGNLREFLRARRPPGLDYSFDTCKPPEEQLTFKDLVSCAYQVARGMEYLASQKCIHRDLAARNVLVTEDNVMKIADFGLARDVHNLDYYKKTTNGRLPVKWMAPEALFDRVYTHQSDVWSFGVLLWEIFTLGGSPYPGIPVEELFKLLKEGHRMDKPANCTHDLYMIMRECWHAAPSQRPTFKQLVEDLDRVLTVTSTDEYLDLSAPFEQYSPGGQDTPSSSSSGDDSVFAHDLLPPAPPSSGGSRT
# UniProt P36888, whole entry: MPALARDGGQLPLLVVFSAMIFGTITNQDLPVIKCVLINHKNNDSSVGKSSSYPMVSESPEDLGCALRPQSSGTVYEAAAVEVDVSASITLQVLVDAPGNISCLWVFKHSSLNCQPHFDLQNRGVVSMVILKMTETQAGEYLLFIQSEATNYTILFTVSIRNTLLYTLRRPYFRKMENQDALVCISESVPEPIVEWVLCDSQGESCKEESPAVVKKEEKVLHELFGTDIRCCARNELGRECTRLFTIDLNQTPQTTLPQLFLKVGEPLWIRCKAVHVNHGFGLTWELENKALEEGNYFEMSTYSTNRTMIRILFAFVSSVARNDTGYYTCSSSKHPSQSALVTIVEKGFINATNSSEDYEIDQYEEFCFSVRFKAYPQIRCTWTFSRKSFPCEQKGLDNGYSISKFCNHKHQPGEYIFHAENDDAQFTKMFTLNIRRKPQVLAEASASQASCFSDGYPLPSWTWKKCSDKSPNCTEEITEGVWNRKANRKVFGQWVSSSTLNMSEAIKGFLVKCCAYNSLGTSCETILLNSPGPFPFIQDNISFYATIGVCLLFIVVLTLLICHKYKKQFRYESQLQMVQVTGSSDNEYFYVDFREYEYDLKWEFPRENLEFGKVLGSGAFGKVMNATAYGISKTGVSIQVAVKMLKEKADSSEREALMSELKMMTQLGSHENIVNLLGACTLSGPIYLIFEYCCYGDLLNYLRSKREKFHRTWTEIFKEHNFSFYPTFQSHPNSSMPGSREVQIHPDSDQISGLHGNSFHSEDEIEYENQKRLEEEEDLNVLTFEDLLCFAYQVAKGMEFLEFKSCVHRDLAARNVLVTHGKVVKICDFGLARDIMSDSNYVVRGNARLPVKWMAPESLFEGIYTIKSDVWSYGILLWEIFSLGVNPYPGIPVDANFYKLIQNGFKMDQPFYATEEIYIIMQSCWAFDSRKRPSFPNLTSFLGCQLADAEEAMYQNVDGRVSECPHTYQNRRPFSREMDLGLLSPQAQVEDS
# UniProt P06241, whole entry, looked up: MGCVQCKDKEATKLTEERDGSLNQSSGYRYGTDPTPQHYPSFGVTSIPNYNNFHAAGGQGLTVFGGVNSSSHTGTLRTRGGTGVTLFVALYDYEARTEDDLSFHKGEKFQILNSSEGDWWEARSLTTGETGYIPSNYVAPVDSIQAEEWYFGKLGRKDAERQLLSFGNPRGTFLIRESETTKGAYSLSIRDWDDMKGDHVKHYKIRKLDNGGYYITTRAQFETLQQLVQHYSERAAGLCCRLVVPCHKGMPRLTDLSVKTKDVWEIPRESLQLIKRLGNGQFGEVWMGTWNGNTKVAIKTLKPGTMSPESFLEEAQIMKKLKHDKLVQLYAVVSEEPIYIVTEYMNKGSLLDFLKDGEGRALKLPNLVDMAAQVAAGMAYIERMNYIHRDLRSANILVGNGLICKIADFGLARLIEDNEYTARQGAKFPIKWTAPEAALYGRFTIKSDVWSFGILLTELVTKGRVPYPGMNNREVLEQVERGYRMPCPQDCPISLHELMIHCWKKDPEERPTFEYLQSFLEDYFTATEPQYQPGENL
# UniProt P49840: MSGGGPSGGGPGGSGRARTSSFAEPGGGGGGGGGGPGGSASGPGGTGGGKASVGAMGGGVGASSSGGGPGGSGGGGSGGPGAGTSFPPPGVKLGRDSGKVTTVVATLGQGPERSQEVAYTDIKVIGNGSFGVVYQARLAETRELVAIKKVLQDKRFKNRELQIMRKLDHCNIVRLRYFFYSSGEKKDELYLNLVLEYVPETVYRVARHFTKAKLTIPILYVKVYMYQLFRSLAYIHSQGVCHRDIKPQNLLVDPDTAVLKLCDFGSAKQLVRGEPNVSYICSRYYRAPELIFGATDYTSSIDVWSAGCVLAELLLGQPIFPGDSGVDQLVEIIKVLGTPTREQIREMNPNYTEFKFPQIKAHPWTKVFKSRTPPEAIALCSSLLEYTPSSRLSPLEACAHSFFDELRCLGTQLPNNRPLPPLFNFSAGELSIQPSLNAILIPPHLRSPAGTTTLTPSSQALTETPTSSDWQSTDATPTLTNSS
# UniProt P14616: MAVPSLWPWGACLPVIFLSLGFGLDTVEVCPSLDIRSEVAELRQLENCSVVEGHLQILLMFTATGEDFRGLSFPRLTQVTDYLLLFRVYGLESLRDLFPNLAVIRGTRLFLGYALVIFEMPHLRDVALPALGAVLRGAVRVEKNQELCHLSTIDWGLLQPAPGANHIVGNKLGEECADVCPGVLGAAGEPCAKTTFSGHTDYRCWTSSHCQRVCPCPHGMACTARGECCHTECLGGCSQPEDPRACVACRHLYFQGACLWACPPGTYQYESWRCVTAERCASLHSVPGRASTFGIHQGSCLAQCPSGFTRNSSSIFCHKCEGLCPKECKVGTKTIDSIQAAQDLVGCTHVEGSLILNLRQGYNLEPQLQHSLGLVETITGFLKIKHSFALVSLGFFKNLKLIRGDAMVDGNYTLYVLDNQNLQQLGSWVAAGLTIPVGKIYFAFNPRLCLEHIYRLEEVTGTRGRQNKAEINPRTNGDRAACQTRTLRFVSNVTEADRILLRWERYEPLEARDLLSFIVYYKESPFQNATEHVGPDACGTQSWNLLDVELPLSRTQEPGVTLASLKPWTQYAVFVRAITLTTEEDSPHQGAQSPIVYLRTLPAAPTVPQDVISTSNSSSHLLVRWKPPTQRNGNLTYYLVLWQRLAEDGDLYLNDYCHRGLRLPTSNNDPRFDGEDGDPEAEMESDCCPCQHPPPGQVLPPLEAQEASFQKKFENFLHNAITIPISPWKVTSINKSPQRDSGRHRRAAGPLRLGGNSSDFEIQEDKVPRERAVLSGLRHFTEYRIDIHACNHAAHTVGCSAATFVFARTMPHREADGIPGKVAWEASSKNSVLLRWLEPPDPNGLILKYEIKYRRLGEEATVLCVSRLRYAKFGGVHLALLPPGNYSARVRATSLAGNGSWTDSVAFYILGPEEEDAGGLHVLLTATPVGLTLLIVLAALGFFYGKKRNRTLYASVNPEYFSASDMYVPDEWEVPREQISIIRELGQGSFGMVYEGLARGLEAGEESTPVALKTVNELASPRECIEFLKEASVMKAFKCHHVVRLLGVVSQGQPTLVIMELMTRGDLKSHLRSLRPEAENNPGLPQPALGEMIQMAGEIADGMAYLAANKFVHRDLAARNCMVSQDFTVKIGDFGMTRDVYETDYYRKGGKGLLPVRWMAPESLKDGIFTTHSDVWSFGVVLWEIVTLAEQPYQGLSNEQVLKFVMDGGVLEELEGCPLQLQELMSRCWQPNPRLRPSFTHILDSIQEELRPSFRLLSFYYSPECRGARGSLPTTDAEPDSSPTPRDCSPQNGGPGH
# Key:
# Assay in all cases: kinase-Nluc reporter destabilization hit call (1 = scored as downregulated) (binary); higher = compound decreases kinase abundance
# Details in all cases: K562, 2-18 h
# [1] = target: ERN1 (UniProt O75460)
# [2] = target: FGFR1 (UniProt P11362)
# [3] = target: FGFR2 (UniProt P21802)
# [4] = target: FGFR3 (UniProt P22607)
# [5] = target: FGR (UniProt P09769)
# [6] = target: FLT3 (UniProt P36888)
# [7] = target: FYN (UniProt P06241)
# [8] = target: GSK3A (UniProt P49840)
# [9] = target: HER2 (UniProt P04626)
# [10] = target: INSRR (UniProt P14616)
smiles,measurement,setting,value
COc1ccc(-c2cc(C(=O)NN=C(C)c3ccc(OC)c(OC)c3)[nH]n2)cc1,kinase-Nluc reporter destabilization hit call,[1]; 10 µM,inactive: 0
same,kinase-Nluc reporter destabilization hit call,[2]; 10 µM,inactive: 0
same,kinase-Nluc reporter destabilization hit call,[3]; 10 µM,inactive: 0
same,kinase-Nluc reporter destabilization hit call,[4]; 10 µM,inactive: 0
same,kinase-Nluc reporter destabilization hit call,[5]; 10 µM,inactive: 0
same,kinase-Nluc reporter destabilization hit call,[6]; 10 µM,inactive: 0
same,kinase-Nluc reporter destabilization hit call,[7]; 10 µM,inactive: 0
same,kinase-Nluc reporter destabilization hit call,[8]; 10 µM,inactive: 0
same,kinase-Nluc reporter destabilization hit call,[9]; 10 µM,active: 1
same,kinase-Nluc reporter destabilization hit call,[10]; 10 µM,inactive: 0
O=S(=O)(c1cccc2c(O)nccc12)N1CCCNCC1 [Hydroxyfasudil (hydrochloride)],kinase-Nluc reporter destabilization hit call,[1]; 10 µM,inactive: 0
same,kinase-Nluc reporter destabilization hit call,[3]; 10 µM,inactive: 0
same,kinase-Nluc reporter destabilization hit call,[4]; 10 µM,inactive: 0
same,kinase-Nluc reporter destabilization hit call,[5]; 10 µM,inactive: 0
same,kinase-Nluc reporter destabilization hit call,[6]; 10 µM,inactive: 0
same,kinase-Nluc reporter destabilization hit call,[7]; 10 µM,inactive: 0
same,kinase-Nluc reporter destabilization hit call,[8]; 10 µM,inactive: 0
same,kinase-Nluc reporter destabilization hit call,[9]; 10 µM,inactive: 0
same,kinase-Nluc reporter destabilization hit call,[10]; 10 µM,inactive: 0
O=C(O)c1ccc(Nc2ncc3c(n2)-c2ccc(Cl)cc2C(c2c(F)cccc2F)=NC3)cc1,kinase-Nluc reporter destabilization hit call,[1]; 10 µM,inactive: 0
same,kinase-Nluc reporter destabilization hit call,[2]; 10 µM,inactive: 0
same,kinase-Nluc reporter destabilization hit call,[3]; 10 µM,inactive: 0
same,kinase-Nluc reporter destabilization hit call,[4]; 10 µM,inactive: 0
same,kinase-Nluc reporter destabilization hit call,[5]; 10 µM,inactive: 0
same,kinase-Nluc reporter destabilization hit call,[6]; 10 µM,inactive: 0
same,kinase-Nluc reporter destabilization hit call,[7]; 10 µM,inactive: 0
same,kinase-Nluc reporter destabilization hit call,[8]; 10 µM,inactive: 0
same,kinase-Nluc reporter destabilization hit call,[10]; 10 µM,inactive: 0
Cc1ccc(Nc2nccc(N(C)c3ccc4c(C)n(C)nc4c3)n2)cc1S(N)(=O)=O [Pazopanib],kinase-Nluc reporter destabilization hit call,[1]; 10 µM,inactive: 0
same,kinase-Nluc reporter destabilization hit call,[3]; 10 µM,inactive: 0
same,kinase-Nluc reporter destabilization hit call,[4]; 10 µM,inactive: 0
same,kinase-Nluc reporter destabilization hit call,[5]; 10 µM,inactive: 0
same,kinase-Nluc reporter destabilization hit call,[6]; 10 µM,inactive: 0
same,kinase-Nluc reporter destabilization hit call,[8]; 10 µM,inactive: 0
same,kinase-Nluc reporter destabilization hit call,[9]; 10 µM,inactive: 0
same,kinase-Nluc reporter destabilization hit call,[10]; 10 µM,inactive: 0
CC(=O)c1c(C)c2cnc(Nc3ccc(N4CCN(C(=O)CCCCCC(=O)N[C@H](C(=O)N5C[C@H](O)C[C@H]5C(=O)NCc5ccc(-c6scnc6C)cc5)C(C)(C)C)CC4)cn3)nc2n(C2CCCC2)c1=O,kinase-Nluc reporter destabilization hit call,[1]; 2.5 µM,inactive: 0
same,kinase-Nluc reporter destabilization hit call,[5]; 2.5 µM,inactive: 0
same,kinase-Nluc reporter destabilization hit call,[6]; 2.5 µM,inactive: 0
same,kinase-Nluc reporter destabilization hit call,[8]; 2.5 µM,inactive: 0
same,kinase-Nluc reporter destabilization hit call,[9]; 2.5 µM,inactive: 0
same,kinase-Nluc reporter destabilization hit call,[10]; 2.5 µM,inactive: 0
C=CC(=O)Nc1cc2c(Nc3ccc(F)c(Cl)c3)ncnc2cc1OCCCN1CCOCC1 [Canertinib],kinase-Nluc reporter destabilization hit call,[1]; 10 µM,inactive: 0
same,kinase-Nluc reporter destabilization hit call,[2]; 10 µM,inactive: 0
same,kinase-Nluc reporter destabilization hit call,[3]; 10 µM,inactive: 0
same,kinase-Nluc reporter destabilization hit call,[4]; 10 µM,inactive: 0
same,kinase-Nluc reporter destabilization hit call,[5]; 10 µM,inactive: 0
same,kinase-Nluc reporter destabilization hit call,[6]; 10 µM,inactive: 0
same,kinase-Nluc reporter destabilization hit call,[7]; 10 µM,inactive: 0
same,kinase-Nluc reporter destabilization hit call,[8]; 10 µM,inactive: 0
same,kinase-Nluc reporter destabilization hit call,[10]; 10 µM,inactive: 0
NC1(C(=O)N[C@@H](CCO)c2ccc(Cl)cc2)CCN(c2nc[nH]c3nccc2-3)CC1 [Capivasertib],kinase-Nluc reporter destabilization hit call,[1]; 10 µM,inactive: 0
same,kinase-Nluc reporter destabilization hit call,[2]; 10 µM,inactive: 0
same,kinase-Nluc reporter destabilization hit call,[3]; 10 µM,inactive: 0
same,kinase-Nluc reporter destabilization hit call,[4]; 10 µM,inactive: 0
same,kinase-Nluc reporter destabilization hit call,[5]; 10 µM,inactive: 0
same,kinase-Nluc reporter destabilization hit call,[6]; 10 µM,inactive: 0
same,kinase-Nluc reporter destabilization hit call,[7]; 10 µM,inactive: 0
same,kinase-Nluc reporter destabilization hit call,[8]; 10 µM,inactive: 0
same,kinase-Nluc reporter destabilization hit call,[9]; 10 µM,inactive: 0
same,kinase-Nluc reporter destabilization hit call,[10]; 10 µM,inactive: 0
CN1CCN(c2ccc3nc(-c4c(N)c5c(F)cccc5[nH]c4=O)[nH]c3c2)CC1 [Dovitinib],kinase-Nluc reporter destabilization hit call,[1]; 2.5 µM,inactive: 0
same,kinase-Nluc reporter destabilization hit call,[5]; 2.5 µM,inactive: 0
same,kinase-Nluc reporter destabilization hit call,[7]; 2.5 µM,inactive: 0
same,kinase-Nluc reporter destabilization hit call,[8]; 2.5 µM,inactive: 0
same,kinase-Nluc reporter destabilization hit call,[9]; 2.5 µM,inactive: 0
same,kinase-Nluc reporter destabilization hit call,[10]; 2.5 µM,inactive: 0
CC1(C)CNc2cc(NC(=O)c3cccnc3NCc3ccncc3)ccc21 [Motesanib],kinase-Nluc reporter destabilization hit call,[1]; 2.5 µM,inactive: 0
same,kinase-Nluc reporter destabilization hit call,[3]; 2.5 µM,inactive: 0
same,kinase-Nluc reporter destabilization hit call,[4]; 2.5 µM,inactive: 0
same,kinase-Nluc reporter destabilization hit call,[5]; 2.5 µM,inactive: 0
same,kinase-Nluc reporter destabilization hit call,[6]; 2.5 µM,inactive: 0
same,kinase-Nluc reporter destabilization hit call,[7]; 2.5 µM,inactive: 0
same,kinase-Nluc reporter destabilization hit call,[8]; 2.5 µM,inactive: 0
same,kinase-Nluc reporter destabilization hit call,[9]; 2.5 µM,inactive: 0
same,kinase-Nluc reporter destabilization hit call,[10]; 2.5 µM,inactive: 0
COc1cc2/c(=N/c3ccc(Br)cc3F)nc[nH]c2cc1OCC1CCN(C)CC1 [Vandetanib],kinase-Nluc reporter destabilization hit call,[1]; 2.5 µM,inactive: 0
same,kinase-Nluc reporter destabilization hit call,[3]; 2.5 µM,inactive: 0
same,kinase-Nluc reporter destabilization hit call,[5]; 2.5 µM,inactive: 0
same,kinase-Nluc reporter destabilization hit call,[6]; 2.5 µM,inactive: 0
same,kinase-Nluc reporter destabilization hit call,[7]; 2.5 µM,inactive: 0
same,kinase-Nluc reporter destabilization hit call,[8]; 2.5 µM,inactive: 0
same,kinase-Nluc reporter destabilization hit call,[9]; 2.5 µM,inactive: 0
same,kinase-Nluc reporter destabilization hit call,[10]; 2.5 µM,inactive: 0
CCc1cc2c(cc1-c1cnn(CC(=O)N(C)C)c1)C(C)(C)c1[nH]c3cc(C#N)ccc3c1C2=O,kinase-Nluc reporter destabilization hit call,[1]; 2.5 µM,inactive: 0
same,kinase-Nluc reporter destabilization hit call,[2]; 2.5 µM,inactive: 0
same,kinase-Nluc reporter destabilization hit call,[4]; 2.5 µM,inactive: 0
same,kinase-Nluc reporter destabilization hit call,[5]; 2.5 µM,inactive: 0
same,kinase-Nluc reporter destabilization hit call,[6]; 2.5 µM,inactive: 0
same,kinase-Nluc reporter destabilization hit call,[7]; 2.5 µM,inactive: 0
same,kinase-Nluc reporter destabilization hit call,[8]; 2.5 µM,inactive: 0
same,kinase-Nluc reporter destabilization hit call,[9]; 2.5 µM,inactive: 0
same,kinase-Nluc reporter destabilization hit call,[10]; 2.5 µM,inactive: 0
Cc1nc(Nc2ncc(C(=O)Nc3c(C)cccc3Cl)s2)cc(N2CCN(CCO)CC2)n1 [Dasatinib],kinase-Nluc reporter destabilization hit call,[1]; 2.5 µM,inactive: 0
same,kinase-Nluc reporter destabilization hit call,[3]; 2.5 µM,inactive: 0
same,kinase-Nluc reporter destabilization hit call,[4]; 2.5 µM,inactive: 0
same,kinase-Nluc reporter destabilization hit call,[5]; 2.5 µM,inactive: 0
same,kinase-Nluc reporter destabilization hit call,[7]; 2.5 µM,inactive: 0
same,kinase-Nluc reporter destabilization hit call,[8]; 2.5 µM,inactive: 0
same,kinase-Nluc reporter destabilization hit call,[9]; 2.5 µM,inactive: 0
same,kinase-Nluc reporter destabilization hit call,[10]; 2.5 µM,inactive: 0
COc1cc(Nc2c(C#N)cnc3cc(OCCCN4CCN(C)CC4)c(OC)cc23)c(Cl)cc1Cl [Bosutinib],kinase-Nluc reporter destabilization hit call,[1]; 2.5 µM,inactive: 0
same,kinase-Nluc reporter destabilization hit call,[2]; 2.5 µM,inactive: 0
same,kinase-Nluc reporter destabilization hit call,[3]; 2.5 µM,inactive: 0
same,kinase-Nluc reporter destabilization hit call,[4]; 2.5 µM,inactive: 0
same,kinase-Nluc reporter destabilization hit call,[5]; 2.5 µM,inactive: 0
same,kinase-Nluc reporter destabilization hit call,[6]; 2.5 µM,inactive: 0
same,kinase-Nluc reporter destabilization hit call,[7]; 2.5 µM,inactive: 0
same,kinase-Nluc reporter destabilization hit call,[8]; 2.5 µM,inactive: 0
same,kinase-Nluc reporter destabilization hit call,[9]; 2.5 µM,inactive: 0
same,kinase-Nluc reporter destabilization hit call,[10]; 2.5 µM,inactive: 0
Cn1cc(/C=C2\C(=O)Nc3cccnc32)c2ccccc21,kinase-Nluc reporter destabilization hit call,[1]; 10 µM,inactive: 0
same,kinase-Nluc reporter destabilization hit call,[2]; 10 µM,inactive: 0
same,kinase-Nluc reporter destabilization hit call,[3]; 10 µM,inactive: 0
same,kinase-Nluc reporter destabilization hit call,[4]; 10 µM,inactive: 0
same,kinase-Nluc reporter destabilization hit call,[6]; 10 µM,inactive: 0
same,kinase-Nluc reporter destabilization hit call,[7]; 10 µM,inactive: 0
same,kinase-Nluc reporter destabilization hit call,[8]; 10 µM,inactive: 0
same,kinase-Nluc reporter destabilization hit call,[9]; 10 µM,inactive: 0
same,kinase-Nluc reporter destabilization hit call,[10]; 10 µM,inactive: 0

# 30 entries from above, with tabs.
smiles	measurement	setting	value
C=CC(=O)Nc1cc2c(Nc3ccc(F)c(Cl)c3)ncnc2cc1OCCCN1CCOCC1 [Canertinib]	kinase-Nluc reporter destabilization hit call	[5]; 10 µM	inactive: 0
same	kinase-Nluc reporter destabilization hit call	[6]; 10 µM	inactive: 0
same	kinase-Nluc reporter destabilization hit call	[7]; 10 µM	inactive: 0
same	kinase-Nluc reporter destabilization hit call	[8]; 10 µM	inactive: 0
same	kinase-Nluc reporter destabilization hit call	[10]; 10 µM	inactive: 0
NC1(C(=O)N[C@@H](CCO)c2ccc(Cl)cc2)CCN(c2nc[nH]c3nccc2-3)CC1 [Capivasertib]	kinase-Nluc reporter destabilization hit call	[1]; 10 µM	inactive: 0
same	kinase-Nluc reporter destabilization hit call	[2]; 10 µM	inactive: 0
same	kinase-Nluc reporter destabilization hit call	[3]; 10 µM	inactive: 0
same	kinase-Nluc reporter destabilization hit call	[4]; 10 µM	inactive: 0
same	kinase-Nluc reporter destabilization hit call	[5]; 10 µM	inactive: 0
same	kinase-Nluc reporter destabilization hit call	[6]; 10 µM	inactive: 0
same	kinase-Nluc reporter destabilization hit call	[7]; 10 µM	inactive: 0
same	kinase-Nluc reporter destabilization hit call	[8]; 10 µM	inactive: 0
same	kinase-Nluc reporter destabilization hit call	[9]; 10 µM	inactive: 0
same	kinase-Nluc reporter destabilization hit call	[10]; 10 µM	inactive: 0
CN1CCN(c2ccc3nc(-c4c(N)c5c(F)cccc5[nH]c4=O)[nH]c3c2)CC1 [Dovitinib]	kinase-Nluc reporter destabilization hit call	[1]; 2.5 µM	inactive: 0
same	kinase-Nluc reporter destabilization hit call	[5]; 2.5 µM	inactive: 0
same	kinase-Nluc reporter destabilization hit call	[7]; 2.5 µM	inactive: 0
same	kinase-Nluc reporter destabilization hit call	[8]; 2.5 µM	inactive: 0
same	kinase-Nluc reporter destabilization hit call	[9]; 2.5 µM	inactive: 0
same	kinase-Nluc reporter destabilization hit call	[10]; 2.5 µM	inactive: 0
CC1(C)CNc2cc(NC(=O)c3cccnc3NCc3ccncc3)ccc21 [Motesanib]	kinase-Nluc reporter destabilization hit call	[1]; 2.5 µM	inactive: 0
same	kinase-Nluc reporter destabilization hit call	[3]; 2.5 µM	inactive: 0
same	kinase-Nluc reporter destabilization hit call	[4]; 2.5 µM	inactive: 0
same	kinase-Nluc reporter destabilization hit call	[5]; 2.5 µM	inactive: 0
same	kinase-Nluc reporter destabilization hit call	[6]; 2.5 µM	inactive: 0
same	kinase-Nluc reporter destabilization hit call	[7]; 2.5 µM	inactive: 0
same	kinase-Nluc reporter destabilization hit call	[8]; 2.5 µM	inactive: 0
same	kinase-Nluc reporter destabilization hit call	[9]; 2.5 µM	inactive: 0
same	kinase-Nluc reporter destabilization hit call	[10]; 2.5 µM	inactive: 0

# Reference: the supplement of paper PMC12823440, “Inhibitors supercharge kinase turnover through native proteolytic circuits” (Nature, 2025)
